Counter-ions that a name gives are not always drawn. The list shows a part of the results. Many values rest on one well or one pass, so single values are uncertain.
Legend:
Assay in all cases: reduction in cell viability relative to untreated/vehicle; higher = more growth inhibition
Conditions in all cases: 200 nM; 72 h
M229P = system: M229P (parental melanoma line)
M229R = system: M229R (matched melanoma line resistant to BRAF inhibitors)
M238P = system: M238P (parental melanoma line)
M238R = system: M238R (matched melanoma line resistant to BRAF inhibitors)
M249P = system: M249P (parental melanoma line)
M249R = system: M249R (matched melanoma line resistant to BRAF inhibitors)
UACC62P = system: UACC62P (parental melanoma line)
UACC62R = system: UACC62R (matched melanoma line resistant to BRAF inhibitors)

Measured: reduction in cell viability

O=C(Nc1nnc(-c2ccco2)o1)c1cc(-c2ccccc2)nc2ccccc12
< 0%: all assays above

CNCc1ccc(-c2[nH]c3cc(F)cc4c3c2CCNC4=O)cc1 [Rucaparib]
< 0%: all assays above

CC[C@H](C)C(=O)O[C@H]1C[C@H](O)C=C2C=C[C@H](C)[C@H](CC[C@@H](O)C[C@@H](O)CC(=O)O)[C@H]21 [Pravastatin sodium]
< 0%: all assays above

O=C(NOC[C@H](O)CO)c1ccc(F)c(F)c1Nc1ccc(I)cc1F
32.3%: M229P
78%: M249P
42%: M249R
12.3%: M229R
32.4%: UACC62R
< 0%: M238R
33.9%: M238P
61.4%: UACC62P

CC(C)N(CCCNC(=O)Nc1ccc(C(C)(C)C)cc1)C[C@H]1O[C@@H](n2cc(Br)c3c(N)ncnc32)[C@H](O)[C@@H]1O
< 0%: all assays above

Nc1cc(N2CCCCC2)nc(N)[n+]1[O-] [Minoxidil]
13.9%: M229P
< 0%: all other assays above

C#CCN[C@@H]1CCc2ccccc21 [Rasagiline mesylate]
< 0%: all assays above

CC(C)C[C@H](NC(=O)CNC(=O)c1cc(Cl)ccc1Cl)B1OC(=O)C(CC(=O)O)(CC(=O)O)O1 [Ixazomib citrate]
78.5%: UACC62P
81.1%: M229R
79.1%: M229P
79.5%: M249R
77.4%: M238P
77.2%: UACC62R
83.1%: M238R
75.9%: M249P

O=C(c1cncc(Br)c1)N1CCC(N2CCCC2)CC1
< 0%: all assays above

OC(CN1CCN(c2cccc(Cl)c2)CC1)C(c1ccccc1)c1ccccc1 (stereo not drawn)
< 0%: all assays above

C[N+](C)([O-])CCNc1ccc(NCC[N+](C)(C)[O-])c2c1C(=O)c1c(O)ccc(O)c1C2=O [Banoxantrone]
10.9%: UACC62R
< 0%: all other assays above

O=C(O)CCn1c2c(c3ccccc31)C[C@H](NS(=O)(=O)c1ccc(F)cc1)CC2 [Ramatroban]
< 0%: all assays above

C[C@@H](O)[C@H]1C(=O)N2C(C(=O)OCOC(=O)C(C)(C)C)=C(SC3CN(C4=NCCS4)C3)[C@H](C)[C@H]12 [Tebipenem pivoxil]
< 0%: all assays above

N=C(N)Nc1ccc(C(=O)Oc2ccc3cc(C(=N)N)ccc3c2)cc1 [Nafamostat mesilate]
< 0%: all assays above

C[C@H]1COC2(CCN(c3nc(=O)c4cc(C(F)(F)F)cc([N+](=O)[O-])c4s3)CC2)O1
< 0%: all assays above

COc1nc(N)nc2c1ncn2[C@@H]1O[C@H](CO)[C@@H](O)[C@@H]1O [Nelarabine]
< 0%: all assays above

Nc1nc(N)c2nc(-c3cccc(O)c3)c(-c3cccc(O)c3)nc2n1
2.29%: M249R
14%: UACC62P
< 0%: all other assays above

O=C(O)C1=C[C@@H](O)[C@@H](O)[C@H](O)C1 [Shikimic acid]
< 0%: all assays above

C[C@](N)(Cc1ccc(O)c(O)c1)C(=O)O [Methyldopa]
< 0%: all assays above

CC=CC1=C(C(=O)O)N2C(=O)[C@@H](NC(=O)[C@H](N)c3ccc(O)cc3)[C@H]2SC1 [Cefprozil monohydrate]
12%: UACC62P
< 0%: all other assays above

C[C@]1(O)C[C@@H](c2nc(-c3ccc4ccc(-c5ccccc5)nc4c3)c3c(N)nccn32)C1 [Linsitinib]
7.33%: M229R
10.2%: M238P
< 0%: all other assays above

CCOC(=O)C1=C(C)NC(=S)NC1c1cccc(O)c1 (stereo not drawn) [Monastrol]
< 0%: all assays above

Cc1cn([C@@H]2C[C@@H](O)[C@H](CO)O2)c(=O)[nH]c1=O [Telbivudine]
13.8%: UACC62P
< 0%: all other assays above

CC(C[N+](C)(C)C)OC(N)=O (stereo not drawn) [Bethanechol chloride]
1.63%: UACC62P
1.79%: M249R
< 0%: all other assays above

O=c1[nH]nc(OCCCc2ccc(Cl)cc2)c(NCc2cccnc2)c1Br [Parogrelil]
< 0%: all assays above

Clc1ccc(C(c2ccccc2Cl)C(Cl)Cl)cc1 (stereo not drawn) [Mitotane]
2.34%: UACC62P
< 0%: all other assays above

O=c1c(-c2ccc(O)cc2)coc2cc(O[C@@H]3O[C@H](CO)[C@@H](O)[C@H](O)[C@H]3O)ccc12 [Daidzin]
< 0%: all assays above

COC(=O)c1ccc2c(c1)NC(=O)/C2=C(\Nc1ccc(N(C)C(=O)CN2CCN(C)CC2)cc1)c1ccccc1 [Nintedanib (BIBF 1120)]
< 0%: all assays above

OCCN1C[C@H](O)[C@@H](O)[C@H](O)[C@H]1CO [Miglitol]
6.64%: UACC62P
6.58%: M249R
< 0%: all other assays above

CO[C@H]1C(=O)[C@]2(C)[C@@H](OC)C[C@H]3OC[C@@]3(OC(C)=O)[C@H]2[C@H](OC(=O)c2ccccc2)[C@]2(O)C[C@H](OC(=O)[C@H](O)[C@@H](NC(=O)OC(C)(C)C)c3ccccc3)C(C)=C1C2(C)C [Cabazitaxel]
75.1%: UACC62R
41.3%: M229R
26.5%: M229P | UACC62P
72.9%: M238R
39%: M249R
75.7%: M238P
27.4%: M249P

Already shown: eleven of the compounds above.
O=C(O)C1=C[C@@H](O)[C@@H](O)[C@H](O)C1 [Shikimic acid]
< 0%: all assays above

C[C@](N)(Cc1ccc(O)c(O)c1)C(=O)O [Methyldopa]
< 0%: all assays above

CC=CC1=C(C(=O)O)N2C(=O)[C@@H](NC(=O)[C@H](N)c3ccc(O)cc3)[C@H]2SC1 [Cefprozil monohydrate]
12%: UACC62P
< 0%: all other assays above

C[C@]1(O)C[C@@H](c2nc(-c3ccc4ccc(-c5ccccc5)nc4c3)c3c(N)nccn32)C1 [Linsitinib]
7.33%: M229R
10.2%: M238P
< 0%: all other assays above

CCOC(=O)C1=C(C)NC(=S)NC1c1cccc(O)c1 (stereo not drawn) [Monastrol]
< 0%: all assays above

Cc1cn([C@@H]2C[C@@H](O)[C@H](CO)O2)c(=O)[nH]c1=O [Telbivudine]
13.8%: UACC62P
< 0%: all other assays above

CC(C[N+](C)(C)C)OC(N)=O (stereo not drawn) [Bethanechol chloride]
1.63%: UACC62P
1.79%: M249R
< 0%: all other assays above

O=c1[nH]nc(OCCCc2ccc(Cl)cc2)c(NCc2cccnc2)c1Br [Parogrelil]
< 0%: all assays above

Clc1ccc(C(c2ccccc2Cl)C(Cl)Cl)cc1 (stereo not drawn) [Mitotane]
2.34%: UACC62P
< 0%: all other assays above

O=c1c(-c2ccc(O)cc2)coc2cc(O[C@@H]3O[C@H](CO)[C@@H](O)[C@H](O)[C@H]3O)ccc12 [Daidzin]
< 0%: all assays above

COC(=O)c1ccc2c(c1)NC(=O)/C2=C(\Nc1ccc(N(C)C(=O)CN2CCN(C)CC2)cc1)c1ccccc1 [Nintedanib (BIBF 1120)]
< 0%: all assays above

Further entries.

Cc1ccccc1C(OCCN(C)C)c1ccccc1 (stereo not drawn) [Orphenadrine hydrochloride]
< 0%: all assays above

CCc1ccc(CCOc2ccc(CC3SC(=O)NC3=O)cc2)nc1 (stereo not drawn) [Pioglitazone HCl]
< 0%: all assays above

C#C[C@]1(O)CC[C@H]2[C@@H]3CCC4=CC(=O)CC[C@@H]4[C@H]3CC[C@@]21CC [Levonorgestrel]
6.75%: M249R
< 0%: all other assays above

COC(=O)[C@H](Cc1ccccc1)NC(=O)[C@@H](N)CC(=O)O [Aspartame]
< 0%: all assays above

CNC(=O)c1ccccc1Sc1ccc2c(/C=C/c3ccccn3)n[nH]c2c1 [Axitinib]
< 0%: all assays above

CN[C@H]1CN(c2ccc3c(=O)c(C(=O)O)cn(-c4nccs4)c3n2)C[C@@H]1OC [Vosaroxin]
21.2%: UACC62R
< 0%: all other assays above

Source: the supplement of paper PMC9015667
